Assay results: patent publication US20240115545A1, “PHARMACEUTICAL COMPOSITION CONTAINING B-LAPACHONE AS ACTIVE INGREDIENT FOR PREVENTION OR TREATMENT OF CHOLESTATIC LIVER DISEASE” (CUROME BIOSCIENCES CO., LTD., priority 2020, published 2024)
For at least one compound, name, drawing or mass did not settle the structure.

Test system: Poly I:C-induced cholestatic liver disease animal models
Assay: Blood AST, ALT, ALP in Poly I:C-induced primary biliary cirrhosis mice (Example 5)
Format: in vivo
Conditions: positive control ursodeoxycholic acid 100 mg/kg in diet for 8 weeks
Experimental: Of cholestatic liver diseases, primary biliary cirrhosis (PBC) may be introduced to a similar state by using a viral RNA mimic and the Toll-like receptor polyinosinic-polycytidylic acid (Poly I:C). After 8-week-old C57BL/6 male mice (Samtako, Korea) were divided into each group (=6), each experimental group excluding a normal group was intraperitoneally administered 5 mg/kg Poly I:C twice a week for 8 weeks. Thereafter, the mice were fed a diet with control (vehicle), β-lapachone 40 mg/kg, β-lapachone 80 mg/kg, and positive control ursodeoxycholic acid 100 mg/kg and obeticholic acid 30 mg/kg for 8 weeks. On the 16th week of treatment, the experiment was ended, and the mice were sacrificed and then the blood was collected from the heart.

C[C@H](CCC(=O)O)[C@H]1CC[C@H]2[C@@H]3[C@@H](O)C[C@@H]4C[C@H](O)CC[C@]4(C)[C@H]3CC[C@]12C [UDCA, ursodeoxycholic acid, reference compound]
inhibited: ALP in the blood | ALT in the blood | AST in the blood
